## Results of single-concentration screens

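Whole-cell growth test on Mycobacterium tuberculosis, read after 3 days in glucose-containing 7H9 medium; the read-out is not stated. Concentration: 50 µM. Higher reads as more growth inhibition (inferred: compounds with an IC50 in retests scored well above the rest). Size under these conditions: about 69,000 compounds, about 760 of them at 50% or above in at least one test.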

Results are given as percent effect. The record does not define 0% and 100%; most values in the screen are far below 50% and negative numbers occur (in some assays of this library far below -100). This is an unselected part of the compounds tested. Two or more numbers in one place are separate tests of the same structure; such repeats can differ widely.

compound | Percent Effect
CCC(=O)N1CCC2(CC1)COCCN2Cc1ccc(F)cc1.O=C(O)C(F)(F)F | 4.179%
O=C(O)C(F)(F)F.O=C(O)C(F)(F)F.[H][C@]12CCC[C@@H](CN(C)C)[C@@]1([H])CN(Cc1ccc(OC)nc1)C2 | -2.463% and -6.729%
Cc1ccc(OCCN(C)C(=O)CCCN2CCCC2=O)c(C)c1 | 0.4404%
CC(C)NC(=O)CN(C)C(=O)c1c(Br)c2ccccc2n1C | 20.59% and 10.81%
O=C(O)C(F)(F)F.O=C(O)C(F)(F)F.O=C(O)C(F)(F)F.[H][C@@]12C[C@@H](OCc3cccnc3)CN1CCN(Cc1nccn1C)C2 | -10.88% and 20.32%
Cc1oc(C(=O)Nc2ccccc2F)cc1S(N)(=O)=O | -17.04%
CC(C)c1nn(C)c(N(C)C)c1CNC1CCOc2ccccc21 (stereo not drawn) | 16.91%
CC(=O)N(Cc1ncc(C)o1)C1CCN(CCCc2cnn(C)c2)C1 (stereo not drawn) | -10.24%
CCN(C(=O)CNC1CCc2ncnn2C1)C1=CCCCC1 (stereo not drawn) | -33.13%
Cc1cc(C)nc(N2CCC(C(=O)Nc3ncc[nH]3)CC2)n1 | 3.261% and 8.005%
COCCc1noc(-c2ccc(=O)[nH]c2)n1 | 17.55%
CN(C)[C@@H]1CCN(C(=O)c2ccco2)[C@H]1Cc1cnn(C)c1.O=C(O)C(F)(F)F | -36.49%
O=C(CNC(=O)N1CCN(c2cccc(Cl)c2)CC1)Nc1ccccn1 | -5.528% and -0.03309%
CCS(=O)(=O)NCC(Cc1cccc(F)c1)N1CCNC1=O (stereo not drawn) | 4.44%
CCOC(=O)CCCNc1nc(C(C)(C)C)nc2c1cnn2C | 18.2%
O=C(c1ccc(F)cc1F)N(CC(F)(F)F)C1CCOCC1 | 1.922% and 8.296%
O=C(NC1CCCCC1)c1ccc(COCC(F)(F)F)o1 | -19.27%
CC[C@H]1COCCN1C(=O)c1cnc(N2CCN(C)CC2)nc1C | -18.15% and -1.744%
CCN(CC)S(=O)(=O)c1cnccc1N1CCN(C(C)C)CC1 | 3.213%
CCN(Cc1nonc1C)C(=O)c1ccc(Br)o1 | 3.876%
CCOCCC(=O)Nc1cccc(Oc2ccccn2)c1 | -4.179% and 13.57%
CCC1COCCN1C(=O)NCc1nccn1Cc1ccccc1 (stereo not drawn) | -7.139%
O=c1c2cnc(N3CCCCC3)nc2ccn1Cc1ccco1 | 41.01%
O=C1CC2(CCN(Cc3cccs3)C2)CN1c1cccc(F)c1 (stereo not drawn) | 40.1% and 39.1%
Cc1cccc(CN2CCc3[nH]nc(C(=O)N(C)C)c3C2)n1.O=C(O)C(F)(F)F | 0.8819%
CC(C)CCN(C)Cc1nc2c(cnn2C)c(=O)[nH]1 | -17.99%
CC(C)NC(=O)CCNC(=O)c1cc(F)ccc1NS(C)(=O)=O | -35.89%
CCC(CO)N(Cc1ccccn1)C(=O)c1ccc2c(c1)CCO2 (stereo not drawn) | -16.9%
O=C(O)C(F)(F)F.O=C(O)C(F)(F)F.[H][C@@]12CN(Cc3ccoc3)CCO[C@]1([H])CN(Cc1ccco1)C2 | 2.969%
O=C(O)C(F)(F)F.O=C(O)C(F)(F)F.[H][C@@]12CCN(c3ncc(F)cn3)[C@]1([H])CC[C@@H](C(=O)NCc1ccccn1)O2 | -24.64%
CC(=O)N1CCCC1c1cccc(Cc2ccccc2Cl)n1 (stereo not drawn) | 36.47%
COC(=O)CNC(=O)CC1COc2ccc(C(=O)N(C)C)cc2N1C (stereo not drawn) | 14.23%
CC(C)c1nccn1C1CCCN(C(=O)c2ccnc(N(C)C)c2)C1 (stereo not drawn) | -12.01%
COCCNC(=O)Nc1cccc(COCCOC(C)C)c1 | -0.4188% and 10.95%
OCC(CO)N1CCC(c2nccnc2Nc2cnccn2)CC1 | -25.66%
COc1ccccc1OCCN(C)c1cc(C)nc(N)n1 | -15.22%
Cc1nc(CN(C)C(=O)C2CCC(=O)N(CCN(C)C)C2)cs1 (stereo not drawn) | -50.23%
Cc1cc(C(=O)NCC(Cc2cccc(F)c2)N2CCCCC2=O)no1 (stereo not drawn) | -2.585%
CCc1nc(NC(=O)NCCc2cscn2)nn1C | -7.786%
O=C(O)C(F)(F)F.[H][C@@]12C[C@@H](c3nc(C)no3)CN(Cc3sccc3C)[C@]1([H])CCO2 | 43.39%
Cn1cc(CN2CCCCC2c2ccc(-c3cccc(Cl)c3)nc2)cn1 (stereo not drawn) | 14.6%
Cc1cnn(CC2CCCCN2C(=O)c2ccc(NC3CC3)nc2)c1 (stereo not drawn) | -0.6508%
Cc1ccc(C(=O)N2CCOCC2)cc1NCc1ccsc1 | -1.684% and 1.385%
COc1ncccc1C(=O)N1CC(c2nc(-c3ccco3)no2)C1 | -72.46%
Cc1nnc(CN(Cc2ccc3c(c2)OCO3)C2CCC(C)CC2)o1 (stereo not drawn) | 37.33% and 14.2%
CCn1cnnc1CNC(=O)N1CCN(c2cccc(C)c2)CC1 | 9.615%
CCNc1ncc(C(=O)NC(CCN(C)C)c2ccccc2)cn1 (stereo not drawn) | -18.24%
O=C(NCc1csc2ccc(Cl)cc12)c1cc2n(n1)CCNC2 | 1.033%
O=C(NCc1cc[nH]n1)N1CCC(Oc2ccccc2Cl)CC1 | 26.2%
CC(C)c1cc(CNC(=O)Nc2cc(F)cc(N3CCCC3)c2)on1 | -7.615%
Cc1ccc(CNC(=O)c2cc(CN3CCC(O)CC3)on2)s1 | -20.54%
CCC(O)CN1CCN(C(=O)c2sccc2C2CC2)CC1 (stereo not drawn) | 15.58%
CCn1nc(C)c(C(=O)N2CCC(Nc3ccc(C)nn3)CC2)c1C | -6.923%
C[C@@H]1CN(C(=O)C2CCS(=O)(=O)CC2)C[C@@]1(O)C1CC1 | -1.411% and -27.88%
NC(=O)C1CCCN(c2ccc(CNC(=O)c3csnn3)cc2)C1 (stereo not drawn) | -34.53%
Cc1ccc(C(=O)NCCCN2CCOCC2)c(Cl)c1 | 15.11%
Cc1nc(NCc2scnc2-c2ccccc2)cc(C2CCNCC2)n1 | 23.11%
CN(Cc1ccco1)C(=O)C1CSCN1C(=O)c1cccs1 (stereo not drawn) | -26.74%
O=C(O)C(F)(F)F.c1c2c(nn1CC1CCOCC1)C(CNC1CCOCC1)OCC2 (stereo not drawn) | -21.42% and -7.245%
CN(C)CCCN1CC2(CCN(C3CCCOC3)CC2)OC1=O (stereo not drawn) | 7.6%
[H][C@@]12CS(=O)(=O)C[C@]1([H])N(Cc1cc(Cl)cc(Cl)c1)CCN2CCO | 10.86%
Cc1nc(NC(=O)c2c(-n3cnnn3)sc3c2CCC3)sc1C | -13.49%
CC(=O)N1CCN(C(=O)CN2CCN(c3cccc(C)c3)CC2)CC1 | -2.401%
Brc1cccc(-c2nnc(CNCCn3cccn3)o2)c1 | 5.174%
O=C(O)c1cc2c(c(S(=O)(=O)N(CCCO)c3ccccc3)c1)CCC2 | 10.55%
[H][C@]12CC[C@]([H])(CN(C(=O)c3cccnc3)C1)N(Cc1cc(F)ccc1F)C2 | -2.377% and 1.567%
Cc1noc(C(C)SCc2ccccn2)n1 (stereo not drawn) | -3.689%
COc1ncccc1NC(=O)NC(C)c1nncn1C (stereo not drawn) | 9.014%
CCN1CCN(Cc2nc(CCc3ccccc3)n[nH]2)CC1 | -1.862% and -23.02%
Cc1cc(C)n(NC(=O)c2ccc(Cl)cc2Cl)c(=O)c1 | -32.46%

Repeated from the top, 9 entries:

compound	Percent Effect
CCC(=O)N1CCC2(CC1)COCCN2Cc1ccc(F)cc1.O=C(O)C(F)(F)F	4.179%
O=C(O)C(F)(F)F.O=C(O)C(F)(F)F.[H][C@]12CCC[C@@H](CN(C)C)[C@@]1([H])CN(Cc1ccc(OC)nc1)C2	-2.463% and -6.729%
Cc1ccc(OCCN(C)C(=O)CCCN2CCCC2=O)c(C)c1	0.4404%
CC(C)NC(=O)CN(C)C(=O)c1c(Br)c2ccccc2n1C	20.59% and 10.81%
O=C(O)C(F)(F)F.O=C(O)C(F)(F)F.O=C(O)C(F)(F)F.[H][C@@]12C[C@@H](OCc3cccnc3)CN1CCN(Cc1nccn1C)C2	-10.88% and 20.32%
Cc1oc(C(=O)Nc2ccccc2F)cc1S(N)(=O)=O	-17.04%
CC(C)c1nn(C)c(N(C)C)c1CNC1CCOc2ccccc21 (stereo not drawn)	16.91%
CC(=O)N(Cc1ncc(C)o1)C1CCN(CCCc2cnn(C)c2)C1 (stereo not drawn)	-10.24%
CCN(C(=O)CNC1CCc2ncnn2C1)C1=CCCCC1 (stereo not drawn)	-33.13%

From ChEMBL document CHEMBL3988442, “University of Dundee, Small-Polar-MMV Screening Library” (2021).